The campaign covered roughly 340,000 compounds. About 170 (0.05%) were called active. This list was built around the results that the source calls inconclusive (neither active nor inactive); the mix of calls is not that of the screen. Calls come from the whole dose curve; as a rule, active = well fitted inhibition curve with a large enough effect in the signal ratio, with a control signal flat (not every such curve was filed as active); inconclusive = small, poorly fitted or top-dose-only effect, or effect the other way, or a change in a side signal; inactive = flat fitted curve, though single readings scatter; the % refers to the signal ratio. Potencies of inconclusive entries are doubtful fits and often do not repeat.
Assay: qHTS Assay to Find Inhibitors of Chronic Active B-Cell Receptor Signaling;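 for activity change, negative = inhibition: plate controls were basal doxycycline-induced cells for no effect and cells given 10 µM MG132 for full effect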
Conditions: ABC-DLBCL IkBa-CBG/CBR reporter, luminescence ratio (green luciferase fused to IkBa over red control in TMD8 lymphoma cells), 4 h; activity change, negative = inhibition: at 46.1 µM (top of the series)
How it was run: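 TMD8 human ABC-DLBCL cells with doxycycline-inducible IκBα–green luciferase fusion and unfused red luciferase, in 0.5% FBS medium; compounds up to 46 uM, 4 h at 37C. Green/red luminescence ratio, filter-overlap corrected, fitted to concentration-response curves.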
Potency is the fitted concentration of half-maximal effect.

Compound | Potency | activity change, negative = inhibition
Cc1noc(N)c1C(=O)Nc1ccc(C(C)(C)C)cc1 | inconclusive: 11.2 µM [falling, partial curve, poor fit] | –
O=C(Oc1c(Cl)cc(Cl)c2cccnc12)c1ccco1 | inconclusive: 8.2 µM [falling, partial curve, poor fit] | –
COc1nc(OC)nc(N2CCC(C(=O)NCC3CCCCC3)CC2)n1 | – | inactive
O=C(Nc1nc2ccccc2s1)c1ccc(N2CCCCC2)c([N+](=O)[O-])c1 | – | inconclusive: 22.7%
COc1ccc([N+](=O)[O-])cc1C(=O)NCCOc1ccc(Cl)cc1 | – | inconclusive: 7.77%
O=C(CS(=O)CC(=O)Nc1ccc(Cl)cc1)NCC1OCCc2ccccc21 (centres undefined) | inconclusive: 18.4 µM [falling, single point] | –
Fc1ccc(NC(=S)Nc2nccs2)cc1 | inconclusive: 22.4 µM [falling, partial curve] | –
CC(=O)c1cc(C#N)c(SCC(=O)OC(C)C)nc1C | – | inconclusive: 3.03%
CCc1ccc2c(CN3CCN(S(=O)(=O)c4ccccc4F)CC3)cc(=O)oc2c1 | – | inactive
C/C(CC1CC2=C(CC1(C)C)C(C)(C)CCC2)=N\NC(N)=S (centres undefined) | inconclusive: 29.1 µM [falling, single point] | –
O=C(Nc1ccccn1)c1c(O)c2cccc3c2n(c1=O)CCC3 | – | inconclusive: 6.68%
Cc1cc(C(=O)COC(=O)c2ccc(O)cc2)c(C)n1CC1CCCO1 (centres undefined) | – | inconclusive: -14.3%
C/C(=N\NC(=O)c1ccc(NS(=O)(=O)c2cccs2)cc1)c1ccc2c(c1)OCO2 | inconclusive: 31.6 µM [rising, single point] | –
CO[C@H]1/C=C/O[C@@]2(C)Oc3c(C)c(O)c4c(O)c(c(C=NN5CCN(C)CC5)c(O)c4c3C2=O)NC(=O)/C(C)=C\C=C\[C@H](C)[C@H](O)[C@@H](C)[C@@H](O)[C@@H](C)[C@H](OC(C)=O)[C@@H]1C | – | inconclusive: 11.1%
NC(=O)c1ccccc1OCC(=O)c1ccc(Cl)cc1 | – | inconclusive: 0.173%
[O-][N+]1=c2ccc(Nc3ccccc3)cc2=NC12CCCCC2 | inconclusive: 2.24 µM [falling, partial curve, poor fit] | –
CCc1cc2c(=O)n(Cc3ccco3)c(SCC(=O)NCC3CCCO3)nc2s1 (centres undefined) | – | inconclusive: -2.97%
Cc1ccc(F)cc1NC(=O)c1ccc(OCC2CCCO2)cc1 (centres undefined) | – | inconclusive: 1.2%
CN(C)c1ccc(C=Nc2ccc(N(C)C)cc2)cc1 | inconclusive: 6.51 µM [falling, partial curve, poor fit] | –
COC(=O)Cc1nnc(SCC(=O)Nc2ccccc2)c2ccccc12 | inconclusive: 31.6 µM [falling, partial curve] | –

Random excerpt: two entries already listed, in no set order.
Compound | Potency | activity change, negative = inhibition
C/C(=N\NC(=O)c1ccc(NS(=O)(=O)c2cccs2)cc1)c1ccc2c(c1)OCO2 | inconclusive: 31.6 µM [rising, single point] | –
O=C(Nc1ccccn1)c1c(O)c2cccc3c2n(c1=O)CCC3 | – | inconclusive: 6.68%

(next part)

Compound | Potency | activity change, negative = inhibition
CCOC(=O)C1=C(C)N(C)C(=S)NC1c1cc(OC)ccc1OC (centres undefined) | inconclusive: 12.6 µM [falling, partial curve, poor fit] | –
CCN(CC)C(=O)[C@H]1C[C@H](CC(=O)NC(C)(C)C)C(=O)N2CCc3c([nH]c4ccc(Cl)cc34)[C@]12C | – | inactive
O=C(NCC(=O)N1CCN(C(c2ccccc2)c2ccccc2)CC1)c1ccccc1F | inconclusive: 1.58 µM [falling, partial curve, poor fit] | –
Cc1onc(-c2c(Cl)cccc2Cl)c1C(=O)NC1CCCCC1 | – | inconclusive: 5.14%
Cc1cc(C)cc(OCC(=O)Nc2ccc(N3CCN(C(=O)c4ccco4)CC3)cc2)c1 | inconclusive: 29.1 µM [falling, single point] | –
COc1cc(NC(=O)COC(=O)/C=C/c2c(C)nn(C3CCS(=O)(=O)C3)c2Cl)cc(OC)c1OC (centres undefined) | inconclusive: 23.1 µM [falling, single point] | –
O=C1NC(Cc2ccccc2)c2nc3ccc(Cl)cc3c(=O)n2-c2cc(Cl)ccc21 (centres undefined) | – | inconclusive: 1.48%
C=CCN(c1ccc(C(=O)N2CCCC2)cc1)S(C)(=O)=O | – | inconclusive: -5.47%
CC1(C)CC(=O)c2c(O)cc(OCC(=O)Nc3ccc(CCO)cc3)cc2O1 | – | inactive
COc1ccc2[nH]c(=O)c(CN(C(=O)c3ccco3)C(C)C)cc2c1 | – | inactive
Cc1ncoc1C(=O)N1CCCC(C(=O)Nc2cccc(-c3ccc(F)cc3)c2)C1 (centres undefined) | – | inconclusive: -17.2%
COc1cccc(CC(=O)Nc2nc(-c3ccc(F)c(F)c3)cs2)c1 | – | inconclusive: -16.8%
O=C(CCCN1C(=O)c2ccccc2C1=O)NCCCn1ccnc1 | inconclusive: 10 µM [rising, partial curve, poor fit] | –
CCOc1cc(/C=C2\NC(=O)NC2=O)ccc1OC(C)C(=O)O (centres undefined) | – | inactive
COc1ccc(N(CC(=O)NCc2ccco2)S(=O)(=O)c2ccc(C)cc2)cc1 | – | inactive
O=C(Oc1cccc(/C=N/Nc2nc(Nc3ccccc3)nc(N3CCOCC3)n2)c1)c1ccco1 | inconclusive: 25.9 µM [falling, single point] | –
C/C(=N/NC(=O)CNc1ccc(C)cc1)c1ccc(Br)s1 | – | inconclusive: -5.18%
N#C/C(=C\c1coc2ccccc2c1=O)C(N)=S | – | inconclusive: -0.267%
Cc1cccnc1NC(=O)c1ccc(Cl)c(S(=O)(=O)N2CCCCCC2)c1 | – | inconclusive: 3.07%
